{"source": "patent US11771766B2", "about": "“Drug delivery system containing phospholipid and cholesterol” (Taiwan Liposome Co., Ltd, priority 2009, dated 2023)", "test": "Vitreous DSP concentration after intravitreal injection, by UPLC (Example 8)", "type": "in vivo, Rabbits", "details": "2 h to 35 d after intravitreal injection, DSP dose 0.2 mg", "method": "Rabbits were injected intravitreally with either dexamethasone sodium phosphate (DSP) alone (control rabbits) or DSP mixed with a delivery vehicle containing DOPC/Cholesterol/DOPG at a ratio 67.5/25/7.5 (test rabbits). Both eyes of each rabbit were injected intravitreally with 50 μl of DSP or the DSP-delivery vehicle mixture at a DSP dose of 0.2 mg. Vitreous DSP concentrations of the control rabbits were examined by ultra-performance liquid chromatography (ACQUITY UPLC™) with a photodiode array (PDA) detector at 2 h, 1 d, 4 d, 8 d, and 15 d after the injection and those of the test rabbits were examined at 2 h, 1 d, 4 d, 8 d, 15 d, and 35 d post injection. Two eyes were examined for each time point.", "data": [{"smiles": "C[C@@H]1C[C@H]2[C@@H]3CCC4=CC(=O)C=C[C@]4(C)[C@@]3(F)[C@@H](O)C[C@]2(C)[C@@]1(O)C(=O)COP(=O)(O)O", "note": "[Dexamethasone sodium phosphate, dexamethasone sodium phosphate]", "values": [{"measurement": "vitreous concentration of DSP over time (in words, FIG. 3)", "value": "decreased very rapidly after injection"}]}]}
